Laboratory results taken from PMC9646841, “A bead-based GPCR phosphorylation immunoassay for high-throughput ligand profiling and GRK inhibitor screening” (Communications Biology, 2022).
Several values for one entry are separate records, joined by “and”; a condition that tells them apart may be missing. Equal values may be shown once. The source gives many values for each of these; only a part stands here.

Test system: MOP (GIRK2 channel activation)
Test: GIRK channel membrane potential assay (G protein signaling)
Assay type: cell-based, mouse
Settings: single replicate values

SMILES | values normalised to 1µM DAMGO (individual values) (5nM ligand) | values normalised to 1µM DAMGO (individual values) (10nM ligand) | values normalised to 1µM DAMGO (individual values) (50nM ligand) | values normalised to 1µM DAMGO (individual values) (100nM ligand) | values normalised to 1µM DAMGO (individual values) (1pM ligand) | values normalised to 1µM DAMGO (individual values) (10pM ligand) | values normalised to 1µM DAMGO (individual values) (100pM ligand) | values normalised to 1µM DAMGO (individual values) (1nM ligand)
C[C@@H](NC(=O)[C@@H](N)Cc1ccc(O)cc1)C(=O)NCC(=O)N(C)[C@@H](Cc1ccccc1)C(=O)NCCO [DAMGO, [D-Ala^2,N-MePhe^4,Gly-ol]-enkephalin] | 98.1543 and 95.9256 and 90.2745 and 88.4941 and 198.451 and 65.7134 and 94.0293 and 97.6782 and 99.0369 and 94.9994 and 82.4278 and 74.9003 and 75.9074 and 62.345 and 65.9984 and 92.7641 | 99.7757 and 97.0173 and 100.232 and 82.718 and 90.4879 and 64.3239 and 93.1242 and 94.8055 and 95.5477 and 91.0532 and 187.536 and 89.7144 and 88.2056 and 53.8054 and 104.858 and 94.851 | 98.7203 and 88.7015 and 94.997 and 106.546 and 97.9398 and 103.49 and 102.516 and 95.364 and 104.46 and 112.036 and 100.414 and 97.3935 and 93.9691 and 111.448 and 111.008 and 99.7765 | 85.4659 and 92.6156 and 103.032 and 97.8778 and 100.113 and 87.5181 and 100.972 and 95.3932 and 94.8561 and 105.848 and 103.121 and 97.9815 | – | – | – | –
CN1CC[C@]23c4c5ccc(O)c4O[C@H]2[C@@H](O)C=C[C@H]3[C@H]1C5 [Morphine, morphine] | – | – | – | – | 4.5 and 5.601 and 10.3934 and 7.19 and 9.526 and 7.83 and 4.903 and 6.518 and -2.124 and 4.4986 and 3.206 and 10.9963 and 10.3625 and 3.144 and 12.1183 and 5.101 | 3.105 and 0.4102 and 8.268 and 8.601 and 3.747 and -0.7087 and 9.445 and 9.5684 and 3.45 and 2.082 and 3.914 and 14.9063 and 6.125 and 10.8447 and 8.643 and 4.027 | 4.251 and 1.078 and 13.2941 and 4.915 and -1.457 and 4.724 and 2.427 and 7.187 and 11.0478 and 5.511 and 4.484 and 13.2061 and 9.336 and 4.6062 and 14.8476 and -0.08555 | 4.414 and 12.324 and 9.993 and 4.598 and 16.7467 and 10.1007 and 10.9155 and 17.43 and 10.0266 and 14.5658 and 0.6635
